Results from PubChem BioAssay AID182 (DTP/NCI, 2004).
The list does not hold the whole screen: its compounds were picked by chemical class. Not every dose and run of a compound is shown. T/C gives the treated animals as a percentage of the vehicle group. For survival time, this PubChem deposit counts one and a half times the control or more as active, and values a quarter to a half above the control carry no call in these data; other NCI protocols may use other cut-offs. Some T/C values are marked as having no survivor count here; that says nothing about deaths at the dose. Schedule codes are those of the source, taken here to give the interval after Q, in days (D) or hours (H), and the number of doses after X.

System: BDF1 mice, P388/ADR leukemia ip, median survival T/C
Test: NCI In Vivo Anticancer Drug Screen. Data for tumor model P388 Leukemia resistant to Adriamycin; NSC 123127, Developed at Scr 06 and 41 (intraperitoneal) in B6D2F1 (BDF1) mice
Details: T/C endpoint: median survival time, schedule: Q04DX003 (ip), vehicle: saline, higher T/C = longer survival
Protocol: The antitumor activity of compounds was measured in mice bearing transplantable tumors. Survival or tumor size were measured and the results are expressed as the measurement made in the treated group (T) divided by the measurement made in the vehicle treated control group (C). The tumor model used in this assay is P388 Leukemia resistant to Adriamycin; NSC 123127, Developed at Scr 06 and 41 (intraperitoneal) in B6D2F1 (BDF1) mice

CN(CCCl)CCCl
T/C (dose: 0.43 mg/kg/injection): 190 % of control [survivor count not shown] | T/C (dose: 0.72 mg/kg/injection): 190 % of control [survivor count not shown]
